Publication PMC6079100
These are yes or no findings as the source states them, for the method shown. In cells and extracts the contact can be indirect. Some binding calls cover weakened binding; strength is not graded here. Sequences can lack the tags named with a protein.

Sequences of proteins named here, by UniProt entry; tags and fusion partners are left off.
UniProt Q15562: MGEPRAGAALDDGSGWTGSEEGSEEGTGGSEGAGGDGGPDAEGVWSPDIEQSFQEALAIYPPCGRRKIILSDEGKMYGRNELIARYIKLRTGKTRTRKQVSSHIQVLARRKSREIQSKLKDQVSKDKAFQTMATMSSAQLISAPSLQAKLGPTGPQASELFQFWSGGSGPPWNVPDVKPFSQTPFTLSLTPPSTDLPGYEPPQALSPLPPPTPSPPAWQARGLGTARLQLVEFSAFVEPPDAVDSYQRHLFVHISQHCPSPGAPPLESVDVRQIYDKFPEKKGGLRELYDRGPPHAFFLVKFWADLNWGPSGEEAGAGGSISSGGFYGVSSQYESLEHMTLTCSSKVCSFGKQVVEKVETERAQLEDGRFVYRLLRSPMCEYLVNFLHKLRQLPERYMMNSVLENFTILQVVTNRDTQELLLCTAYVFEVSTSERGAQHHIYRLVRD
UniProt Q13547: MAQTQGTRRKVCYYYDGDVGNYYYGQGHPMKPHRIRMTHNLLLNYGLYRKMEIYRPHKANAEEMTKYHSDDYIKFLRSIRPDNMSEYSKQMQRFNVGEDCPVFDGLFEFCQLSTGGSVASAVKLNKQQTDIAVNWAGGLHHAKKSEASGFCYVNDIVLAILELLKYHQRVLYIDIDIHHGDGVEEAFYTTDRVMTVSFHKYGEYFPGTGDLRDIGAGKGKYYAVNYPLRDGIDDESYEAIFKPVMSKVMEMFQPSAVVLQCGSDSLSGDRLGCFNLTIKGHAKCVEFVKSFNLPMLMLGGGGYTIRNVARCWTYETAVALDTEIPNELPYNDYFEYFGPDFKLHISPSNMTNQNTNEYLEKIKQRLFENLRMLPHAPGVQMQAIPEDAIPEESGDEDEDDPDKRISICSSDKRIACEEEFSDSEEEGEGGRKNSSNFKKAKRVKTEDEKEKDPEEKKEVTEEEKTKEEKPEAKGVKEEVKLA
UniProt O15379: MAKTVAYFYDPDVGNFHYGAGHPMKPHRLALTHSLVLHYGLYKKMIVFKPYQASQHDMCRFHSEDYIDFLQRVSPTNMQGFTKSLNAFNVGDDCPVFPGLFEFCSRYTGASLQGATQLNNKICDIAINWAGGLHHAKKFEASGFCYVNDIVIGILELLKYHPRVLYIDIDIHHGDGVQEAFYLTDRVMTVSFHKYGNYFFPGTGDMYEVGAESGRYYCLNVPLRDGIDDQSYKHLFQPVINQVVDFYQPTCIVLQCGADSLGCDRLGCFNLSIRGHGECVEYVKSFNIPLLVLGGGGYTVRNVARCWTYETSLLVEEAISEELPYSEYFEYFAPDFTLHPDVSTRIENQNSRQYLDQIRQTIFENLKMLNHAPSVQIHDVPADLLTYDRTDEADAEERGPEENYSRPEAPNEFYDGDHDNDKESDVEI

What was measured:
V5-tagged TRPS1 = biological target: T1, V5-tagged TRPS1 (UniProt Q9UHF7); test: co-IP; 293T cells expressing V5-TRPS1; HEGN buffer; V5 precipitates eluted with 1 mg/ml V5 peptide; Western blot for endogenous corepressor proteins
T1 sequence: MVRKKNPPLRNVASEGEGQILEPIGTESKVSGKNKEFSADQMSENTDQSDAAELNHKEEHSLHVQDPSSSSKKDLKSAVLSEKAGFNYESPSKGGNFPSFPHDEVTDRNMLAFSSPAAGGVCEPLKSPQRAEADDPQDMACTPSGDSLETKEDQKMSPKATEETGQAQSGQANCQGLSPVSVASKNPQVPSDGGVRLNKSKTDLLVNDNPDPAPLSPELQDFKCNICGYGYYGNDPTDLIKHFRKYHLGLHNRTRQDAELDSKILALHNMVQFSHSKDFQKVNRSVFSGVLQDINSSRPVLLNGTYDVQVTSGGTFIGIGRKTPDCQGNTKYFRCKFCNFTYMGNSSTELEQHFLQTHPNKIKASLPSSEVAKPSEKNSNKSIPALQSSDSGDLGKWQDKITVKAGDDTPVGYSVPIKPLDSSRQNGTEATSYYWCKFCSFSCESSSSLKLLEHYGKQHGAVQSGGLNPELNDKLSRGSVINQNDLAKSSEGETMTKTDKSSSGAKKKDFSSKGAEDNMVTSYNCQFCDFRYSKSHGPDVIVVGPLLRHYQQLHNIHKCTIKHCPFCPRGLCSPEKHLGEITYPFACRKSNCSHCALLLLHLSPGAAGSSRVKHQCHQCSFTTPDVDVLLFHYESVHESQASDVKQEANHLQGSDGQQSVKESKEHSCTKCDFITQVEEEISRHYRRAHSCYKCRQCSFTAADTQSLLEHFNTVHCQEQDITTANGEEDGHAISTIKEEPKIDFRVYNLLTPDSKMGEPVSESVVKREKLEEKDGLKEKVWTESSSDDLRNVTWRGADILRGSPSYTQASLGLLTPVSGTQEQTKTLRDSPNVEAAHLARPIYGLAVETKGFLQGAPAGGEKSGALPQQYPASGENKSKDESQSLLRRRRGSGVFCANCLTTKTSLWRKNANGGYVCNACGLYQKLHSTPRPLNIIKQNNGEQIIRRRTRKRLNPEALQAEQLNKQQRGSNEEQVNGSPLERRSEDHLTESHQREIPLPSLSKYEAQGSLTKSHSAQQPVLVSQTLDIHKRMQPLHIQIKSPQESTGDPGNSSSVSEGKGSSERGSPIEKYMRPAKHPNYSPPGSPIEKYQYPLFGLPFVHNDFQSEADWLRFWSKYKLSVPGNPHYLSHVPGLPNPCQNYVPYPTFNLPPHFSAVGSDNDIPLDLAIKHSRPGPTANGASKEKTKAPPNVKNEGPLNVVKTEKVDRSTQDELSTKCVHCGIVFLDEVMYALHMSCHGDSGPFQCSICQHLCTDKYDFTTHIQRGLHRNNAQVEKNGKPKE

[1] = biological target: T2, TRPS1 expressed in 293T cells (exogenous co-immunoprecipitation with GAL4-tagged TEAD proteins) (UniProt Q9UHF7); test: co-IP; 293T cells co-expressing TRPS1 and GAL4-tagged TEAD proteins; lysis in HEGN buffer (120 mM KCl, 0.2% NP-40); precipitation with a TRPS1 antibody on Dynabeads overnight at 4 °C, IgG as control; Western blot
T2 sequence: T1 sequence

Substance | binding (V5-tagged TRPS1) | binding [1]
CTBP2, endogenous in 293T cells (from UniProt P56545 1-445) | binds | 
GAL4-tagged TEAD2 (from UniProt Q15562 1-447) |  | binds
HDAC1, endogenous in 293T cells (from UniProt Q13547 1-482) (enzyme) | binds | 
HDAC3, endogenous in 293T cells (from UniProt O15379 1-428) (enzyme) | binds | 
